# Experimental data: PubChem BioAssay AID1671190 (National Center for Advancing Translational Sciences (NCATS), 2021)
# Chains of the proteins cited; added tags and fusions are not shown.
# UniProt P18054, whole entry, looked up: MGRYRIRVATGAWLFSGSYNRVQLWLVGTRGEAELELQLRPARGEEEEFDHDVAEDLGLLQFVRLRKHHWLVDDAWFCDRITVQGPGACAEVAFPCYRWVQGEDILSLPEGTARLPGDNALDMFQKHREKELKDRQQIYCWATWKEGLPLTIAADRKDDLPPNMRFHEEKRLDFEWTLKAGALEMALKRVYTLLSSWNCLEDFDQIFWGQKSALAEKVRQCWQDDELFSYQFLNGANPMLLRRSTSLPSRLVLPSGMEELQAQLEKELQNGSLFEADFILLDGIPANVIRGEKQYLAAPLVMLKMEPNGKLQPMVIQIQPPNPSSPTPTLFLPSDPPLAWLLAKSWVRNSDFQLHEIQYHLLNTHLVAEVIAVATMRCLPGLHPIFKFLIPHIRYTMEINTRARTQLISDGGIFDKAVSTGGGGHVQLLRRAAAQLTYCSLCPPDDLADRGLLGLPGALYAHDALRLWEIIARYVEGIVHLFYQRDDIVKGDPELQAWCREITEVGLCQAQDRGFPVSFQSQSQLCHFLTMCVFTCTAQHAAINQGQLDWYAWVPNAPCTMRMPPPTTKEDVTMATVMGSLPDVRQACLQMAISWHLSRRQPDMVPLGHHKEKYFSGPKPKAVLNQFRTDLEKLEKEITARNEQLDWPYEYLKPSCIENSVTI
# The campaign covered roughly 580,000 compounds. About 6,100 (1.1%) were called active. The inconclusive results got no clear call from the source; some entries with a clear call stand among them for comparison. Calls follow the shape of the dose curve; as a rule, active = well fitted inhibition curve with a large enough effect; inconclusive = small, poorly fitted or top-dose-only effect, or another doubt; inactive = no such curve, though single readings can be large or run the other way. Potencies beside an inconclusive call are fits to weak or partial responses and may not hold up.
# Biological target: Polyunsaturated fatty acid lipoxygenase ALOX12 (Homo sapiens) (UniProt P18054)
# Test: Primary qHTS assay for inhibitors of human arachidonate 12S-lipoxygenase (ALOX12): Round 2
# Details: purified 12hLO, xylenol orange hydroperoxide absorbance; series mostly up to 108 µM
# How it was run: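 Purified human 12hLO at 150 nM in 25 mM Hepes, 0.01% Triton X-100, pH 7.0, preincubated 15 min at room temperature with compound. Reaction started with 40 uM arachidonic acid, 30 min at room temperature. Hydroperoxide measured by Fe-xylenol orange, 573/405 nm absorbance ratio.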
# Potency is read from the fitted curve at half-maximal effect.
row,Compound,Potency
1,O=C(CNCCO)NC12CC3CC(CC(C3)C1)C2,"inconclusive: 35.5 µM [inhibitor, partial curve, poor fit]"
2,Cc1[nH]c(=O)[nH]c(=S)c1C(=O)Nc1ccc(Cl)c(Cl)c1,"inconclusive: 50.1 µM [inhibitor, partial curve, poor fit]"
3,CCn1c2c(c(=O)n3ncc(C(=O)Nc4ccc(F)c(Cl)c4)c13)CN(Cc1ccc(OC)cc1)CC2,"inconclusive: 56.2 µM [inhibitor, partial curve, poor fit]"
4,CNC(=O)NC(=O)CSc1ncnc2ccccc12,"inconclusive: 44.7 µM [inhibitor, partial curve, poor fit]"
5,O=C(NCc1cccnc1)N1CCN(S(=O)(=O)c2cc(Cl)ccc2Cl)CC1,inactive
6,COCC(=O)Nc1sc2c(c1C(=O)OC)CCCC2,"inconclusive: 17.8 µM [inhibitor, partial curve]"
7,COC(=O)c1nnn(-c2cc(Cl)cc(Cl)c2)c1C(=O)OC,"inconclusive: 22.4 µM [inhibitor, partial curve, poor fit]"
8,COc1cc(/C=N/OCc2ccc(Cl)c(Cl)c2)cc(Cl)c1OC,"inconclusive: 44.7 µM [inhibitor, partial curve, poor fit]"
9,Cc1ccc(N/C=C/C(=O)c2cccc(Cl)c2)cc1,"inconclusive: 20 µM [inhibitor, partial curve, poor fit]"
10,Cc1ccc(CN2C(=O)N(c3ccc(C)c(Cl)c3)S(=O)(=O)c3ccccc32)cc1,inactive
11,C[C@]12c3[nH]c4cc(-c5ccco5)ccc4c3CCN1C(=O)[C@@H](CC(=O)NCCN1CCOCC1)C[C@@H]2C(=O)N1CCCCC1,"inconclusive: 100 µM [inhibitor, single point]"
12,COc1ccccc1C(=O)COC(=O)Cc1ccc(Cl)cc1Cl,"inconclusive: 25.1 µM [inhibitor, partial curve]"
13,CN(C)c1ccc2nc3ccc(=O)cc-3sc2c1,"inconclusive: 44.7 µM [inhibitor, partial curve]"
14,O=C1NC(=O)/C(=C\c2ccc(OCc3cccc(C(=O)O)c3)c(Cl)c2)N1,"inconclusive: 126 µM [inhibitor, partial curve, poor fit]"
15,CC1CCCN(C(=O)c2ccc(NS(=O)(=O)c3ccc4[nH]c(=O)[nH]c4c3)cc2)C1 (stereo not given),inactive
16,O=C(O)Cc1c[nH]c2cccc(O)c12,"inconclusive: 50.1 µM [inhibitor, partial curve, poor fit]"
17,COC(=O)c1cc2oc(C)cc2n1Cc1ccc(Cl)cc1,"inconclusive: 112 µM [inhibitor, partial curve, poor fit]"
18,COC(=O)c1c(-c2cccs2)csc1NC(=O)COc1ccc(C(C)C)cc1,inactive
19,Cc1c(N2CCCC2)cc2c(c1N)C(C)(C)CC2(C)C,inactive
20,O=C(NC1(O)C(=O)c2ccccc2C1=O)c1ccccc1,active: 31.6 µM
21,COc1ccc2cc(C(c3nnnn3CCc3ccccc3)N3CCCC(C)C3)c(=O)[nH]c2c1 (stereo not given),"inconclusive: 20 µM [inhibitor, full curve, poor fit]"
22,CCc1ccc(CNC(=O)c2ccc(CS(=O)(=O)Cc3ccccc3C)o2)cc1,inactive

# As entered above.
# `COc1ccccc1C(=O)COC(=O)Cc1ccc(Cl)cc1Cl` – Potency: inconclusive: 25.1 µM [inhibitor, partial curve]
# `O=C(O)Cc1c[nH]c2cccc(O)c12` – Potency: inconclusive: 50.1 µM [inhibitor, partial curve, poor fit]

# Carrying on.

row,Compound,Potency
1,COc1ccccc1CC(=O)Nc1sc2c(c1C(N)=O)CCCC2,"inconclusive: 100 µM [inhibitor, partial curve, poor fit]"
2,CC(=O)N(CCC(c1ccco1)C(C)C)Cc1ccc(Cl)cc1 (stereo not given),"inconclusive: 50.1 µM [inhibitor, partial curve, poor fit]"
3,O=C(Nc1ccc(Cl)cc1C(F)(F)F)c1cc(S(=O)(=O)NCc2ccccc2)ccc1F,"inconclusive: 63.1 µM [inhibitor, partial curve, poor fit]"
4,CCOc1cc(-c2sc(Nc3ccccc3)n[n+]2-c2ccc(F)cc2)ccc1OC,inactive
5,O=C1C(=O)N(CC2CCCO2)C(c2ccco2)/C1=C(/O)c1ccc(F)cc1 (stereo not given),"inconclusive: 35.5 µM [inhibitor, partial curve, poor fit]"
6,CCOC(=O)CSc1nc2ccccc2n2c(C)nnc12,"inconclusive: 50.1 µM [inhibitor, partial curve, poor fit]"
7,COc1ccc2cc3cc(C(=O)NC4CC4)sc3nc2c1,inactive
8,COc1ccc(N2CCN(C(=O)c3ccc(N(C)S(=O)(=O)c4ccc(C)cc4)cc3)CC2)cc1,inactive
9,COc1ccccc1-c1nc2nccc(-c3ccc4c(c3)OCCCO4)n2n1,inactive
10,O=C(COC(=O)c1ccc(Cl)nc1)NCCc1ccccc1,"inconclusive: 79.4 µM [inhibitor, single point]"
11,Cc1cc(-c2[nH]c3ccccc3c2C=O)c(C)s1,inactive
12,Cc1c(N/N=C(\C#N)C(=O)c2ccc(Cl)cc2)c(=O)n(-c2ccccc2)n1C,active: 8.91 µM
13,CC(C)c1ccc(OCC(=O)N2CCc3ccccc3C2)cc1,"inconclusive: 100 µM [inhibitor, partial curve, poor fit]"
14,CCOC(=O)c1c(NC(=O)CSc2nc3cc(Cl)ccc3c(=O)n2Cc2ccco2)sc(C(=O)N(C)C)c1C,"inconclusive: 44.7 µM [inhibitor, partial curve, poor fit]"
15,Cc1ccc(C(=O)N2C(=O)C(c3ccccc3)Oc3ccccc32)cc1 (stereo not given),"inconclusive: 112 µM [inhibitor, partial curve, poor fit]"
16,CCC(=O)c1c(-c2ccccc2)nc2n(CCN3CCOCC3)c3ccccc3n12,"inconclusive: 44.7 µM [inhibitor, partial curve, poor fit]"
17,COc1ccc(C(=O)/C=C/c2cccc(OC(=O)C3CC3)c2)cc1,inactive
18,CSc1ccc(CN2CCSCC2)cc1,"inconclusive: 0.251 µM [inhibitor, full curve, poor fit]"
19,O=C(Nc1cc(Cl)cc(Cl)c1)C(c1ccccc1)N1CCN(C(=O)C2CC2)CC1 (stereo not given),inactive
20,Cc1nn(-c2cc(N3CCCCCC3)ccc2[N+](=O)[O-])c(=O)c2ccccc12,inactive
21,CC(C)C[C@H]1CNC(=S)N1CC1CCN(CCCC2CCCCC2)CC1,inactive
22,CC1=Nc2ccccc2/C1=C\c1nc(-c2ccc(C(F)(F)F)cc2)oc1O,"inconclusive: 126 µM [inhibitor, single point]"

row,Compound,Potency
1,COc1cc(C(c2c(C)[nH][nH]c2=O)c2c(C)[nH][nH]c2=O)ccc1OCc1ccccc1Cl,"inconclusive: 44.7 µM [inhibitor, partial curve, poor fit]"
2,O=C(Nc1ccc(F)c(Cl)c1)N1CCC2(CC1)SCC(=O)N2Cc1ccco1,"inconclusive: 14.1 µM [inhibitor, full curve, poor fit]"
3,CCc1nnc(NC(=O)CSc2ncc(-c3ccccc3)n2CC)s1,"inconclusive: 100 µM [inhibitor, single point]"
4,COc1ccc(-n2c(SCC(=O)Nc3cccc4ccccc34)nc(O)cc2=O)cc1,"inconclusive: 100 µM [inhibitor, single point]"
5,CCOc1ccc(-c2cn(-c3cccc(SC)c3)c(=O)[nH]2)cc1,"inconclusive: 44.7 µM [inhibitor, partial curve, poor fit]"
6,O=C(C1CCC1)N1CCC2(CCN(Cc3ccccc3F)CC2)C(CO)C1 (stereo not given),"inconclusive: 70.8 µM [inhibitor, partial curve, poor fit]"
7,NS(=O)(=O)c1ccc(NC(=S)NCc2ccccc2)cc1,"inconclusive: 50.1 µM [inhibitor, partial curve, poor fit]"
8,COC(=O)c1ccc(C)c(NC(=O)C2CCCN(S(=O)(=O)Cc3ccc(F)cc3)C2)c1 (stereo not given),inactive
9,CCc1ccc(S(=O)(=O)c2nnn3c2nc(NCCC(C)C)c2cc(Cl)ccc23)cc1,inactive
10,S=C(c1cn(Cc2ccc(Br)cc2)c2ccccc12)N1CCOCC1,"inconclusive: 35.5 µM [inhibitor, partial curve]"
11,NC(N)=NCCCN1CCCC1,"inconclusive: 4.47 µM [inhibitor, full curve, poor fit]"
12,COc1ccc2c(c1)c(CC(=O)Nc1cc(C)c(OC)c(C)c1)c(C)n2C(=O)c1ccc(Cl)cc1,"inconclusive: 112 µM [inhibitor, partial curve, poor fit]"
13,CC(C)(C)CC(=O)NC[C@H]1OC[C@@H](NC2CCNCC2)[C@@H]1O,"inconclusive: 20 µM [inhibitor, full curve]"
14,CCCCC1CCC[S+](c2cc(O)ccc2O)C1 (stereo not given),"inconclusive: 10 µM [inhibitor, full curve, poor fit]"
15,C[C@@H](C(=O)NCc1ccc(S(C)(=O)=O)cc1)[C@@H]1C[C@@]1(C)[C@@H](NC(=O)OCc1ccccc1)c1ccccc1,inactive
16,Cc1ccc(S(=O)(=O)N2C[C@H]3[C@H]4C(=O)N(c5ccccc5)C(=O)[C@H]4C[C@H](OC(=O)NCc4ccccc4)[C@@]3(O)C2)cc1,"inconclusive: 126 µM [inhibitor, single point]"
17,Cc1cc(Cl)ccc1-c1nc(NCc2ccccc2)nc2ccsc12,active: 39.8 µM
18,Cc1cccc(Oc2ccccc2NS(=O)(=O)c2ccc(CCC(=O)O)cc2)c1,"inconclusive: 112 µM [inhibitor, single point]"
19,Cn1cnc([N+](=O)[O-])c1Nc1ccccc1O,"inconclusive: 31.6 µM [inhibitor, single point]"
20,CCc1ccc(Nc2cc(C(=O)NCCCN3CCOCC3)c3ccccc3n2)cc1,"inconclusive: 44.7 µM [inhibitor, partial curve, poor fit]"
21,O=C1CCC/C(=N/Nc2ccc(Cl)cc2)C1,"inconclusive: 31.6 µM [inhibitor, partial curve]"

# Looked up by structure from above, 3 records:
row,Compound,Potency
14,CCCCC1CCC[S+](c2cc(O)ccc2O)C1 (stereo not given),"inconclusive: 10 µM [inhibitor, full curve, poor fit]"
11,NC(N)=NCCCN1CCCC1,"inconclusive: 4.47 µM [inhibitor, full curve, poor fit]"
8,COC(=O)c1ccc(C)c(NC(=O)C2CCCN(S(=O)(=O)Cc3ccc(F)cc3)C2)c1 (stereo not given),inactive
